Measured values taken from article PMC13080232.
These are yes or no findings as the source states them, for the method shown. Binding seen in cells or lysates may run through a third protein. Here binding means that the protein was enriched with, or labelled near, the bait; the list need not be complete.

Sequences of proteins named here, by UniProt entry; tags and fusion partners are left off.
UniProt P21926: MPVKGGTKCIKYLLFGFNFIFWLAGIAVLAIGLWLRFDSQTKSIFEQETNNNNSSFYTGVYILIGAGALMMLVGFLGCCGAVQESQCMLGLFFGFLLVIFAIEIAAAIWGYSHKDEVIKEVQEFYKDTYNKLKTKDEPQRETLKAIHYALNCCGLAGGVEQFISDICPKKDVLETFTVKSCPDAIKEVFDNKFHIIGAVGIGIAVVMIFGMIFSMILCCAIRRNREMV

B1: G protein regulated inducer of neurite outgrowth 2 (protein, UniProt O60269 1-458)
chain: MSSSRPEPGPWAPLSPRLQPLSQSSSSLLGEGREQRPELRKTASSTVWQAQLGEASTRPQAPEEEGNPPESMKPARASGPKARPSAGGHWWSSTVGNVSTMGGSDLCRLRAPSAAAMQRSHSDLVRSTQMRGHSGARKASLSCSALGSSPVHRAQLQPGGTSGQGGQAPAGLERDLAPEDETSNSAWMLGASQLSVPPLDLGDTTAHSSSAQAEPKAAEQLATTTCHALPPAALLCGMREVRAGGCCHALPATGILAFPKLVASVSESGLQAQHGVKIHCRLSGGLPGHSHCCAHLWGPAGLVPEPGSRTKDVWTMTSANDLAPAEASPLSAQDAGVQAAPVAACKAVATSPSLEAPAALHVFPEVTLGSSLEEVPSPVRDVRWDAEGMTWEVYGAAVDLEVLGVAIQKHLEMQFEQLQRAPASEDSLSVEGRRGPLRAVMQSLRRPSCCGCSGAAPE
B2: NIPA like domain containing 4 (protein, UniProt Q0D2K0 1-404)
chain: MELRVSNTSCENGSLLHLYCSSQEVLCQIVNDLSPEVPSNATFHSWQERIRQNYGFYIGLGLAFLSSFLIGSSVILKKKGLLRLVATGATRAVDGGFGYLKDAMWWAGFLTMAAGEVANFGAYAFAPATVVTPLGALSVLISAILSSYFLRESLNLLGKLGCVICVAGSTVMVIHAPEEEKVTTIMEMASKMKDTGFIVFAVLLLVSCLILIFVIAPRYGQRNILIYIIICSVIGAFSVAAVKGLGITIKNFFQGLPVVRHPLPYILSLILALSLSTQVNFLNRALDIFNTSLVFPIYYVFFTTVVVTSSIILFKEWYSMSAVDIAGTLSGFVTIILGVFMLHAFKDLDISCASLPHMHKNPPPSPAPEPTVIRLEDKNVLVDNIELASTSSPEEKPKVFIIHS
B3: dystroglycan-1 (protein, UniProt Q14118 30-895)
chain: HWPSEPSEAVRDWENQLEASMHSVLSDLHEAVPTVVGIPDGTAVVGRSFRVTIPTDLIASSGDIIKVSAAGKEALPSWLHWDSQSHTLEGLPLDTDKGVHYISVSATRLGANGSHIPQTSSVFSIEVYPEDHSELQSVRTASPDPGEVVSSACAADEPVTVLTVILDADLTKMTPKQRIDLLHRMRSFSEVELHNMKLVPVVNNRLFDMSAFMAGPGNAKKVVENGALLSWKLGCSLNQNSVPDIHGVEAPAREGAMSAQLGYPVVGWHIANKKPPLPKRVRRQIHATPTPVTAIGPPTTAIQEPPSRIVPTPTSPAIAPPTETMAPPVRDPVPGKPTVTIRTRGAIIQTPTLGPIQPTRVSEAGTTVPGQIRPTMTIPGYVEPTAVATPPTTTTKKPRVSTPKPATPSTDSTTTTTRRPTKKPRTPRPVPRVTTKVSITRLETASPPTRIRTTTSGVPRGGEPNQRPELKNHIDRVDAWVGTYFEVKIPSDTFYDHEDTTTDKLKLTLKLREQQLVGEKSWVQFNSNSQLMYGLPDSSHVGKHEYFMHATDKGGLSAVDAFEIHVHRRPQGDRAPARFKAKFVGDPALVLNDIHKKIALVKKLAFAFGDRNCSTITLQNITRGSIVVEWTNNTLPLEPCPKEQIAGLSRRIAEDDGKPRPAFSNALEPDFKATSITVTGSGSCRHLQFIPVVPPRRVPSEAPPTEVPDRDPEKSSEDDVYLHTVIPAVVVAAILLIAGIIAMICYRKKRKGKLTLEDQATFIKKGVPIIFADELDDSKPPPSSSMPLILQEEKAPLPPPEYPNQSVPETTPLNQDTMGEYTPLRDEDPNAPPYQPPPPFTAPMEGKGSRPKNMTPYRSPPPYVPP
B4: syndecan-1 (protein, UniProt P18827 23-310)
chain: QIVATNLPPEDQDGSGDDSDNFSGSGAGALQDITLSQQTPSTWKDTQLLTAIPTSPEPTGLEATAASTSTLPAGEGPKEGEAVVLPEVEPGLTAREQEATPRPRETTQLPTTHLASTTTATTAQEPATSHPHRDMQPGHHETSTPAGPSQADLHTPHTEDGGPSATERAAEDGASSQLPAAEGSGEQDFTFETSGENTAVVAVEPDRRNQSPVDQGATGASQGLLDRKEVLGGVIAGGLVGLIFAVCLVGFMLYRMKKKDEGSYSLEEPKQANGGAYQKPTKQEEFYA
B5: carboxypeptidase D (protein, UniProt O75976 32-1380)
chain: AHIKKAEATTTTTSAGAEAAEGQFDRYYHEEELESALREAAAAGLPGLARLFSIGRSVEGRPLWVLRLTAGLGSLIPEGDAGPDAAGPDAAGPLLPGRPQVKLVGNMHGDETVSRQVLIYLARELAAGYRRGDPRLVRLLNTTDVYLLPSLNPDGFERAREGDCGFGDGGPSGASGRDNSRGRDLNRSFPDQFSTGEPPALDEVPEVRALIEWIRRNKFVLSGNLHGGSVVASYPFDDSPEHKATGIYSKTSDDEVFKYLAKAYASNHPIMKTGEPHCPGDEDETFKDGITNGAHWYDVEGGMQDYNYVWANCFEITLELSCCKYPPASQLRQEWENNRESLITLIEKVHIGVKGFVKDSITGSGLENATISVAGINHNITTGRFGDFYRLLVPGTYNLTVVLTGYMPLTVTNVVVKEGPATEVDFSLRPTVTSVIPDTTEAVSTASTVAIPNILSGTSSSYQPIQPKDFHHHHFPDMEIFLRRFANEYPNITRLYSLGKSVESRELYVMEISDNPGVHEPGEPEFKYIGNMHGNEVVGRELLLNLIEYLCKNFGTDPEVTDLVHNTRIHLMPSMNPDGYEKSQEGDSISVIGRNNSNNFDLNRNFPDQFVQITDPTQPETIAVMSWMKSYPFVLSANLHGGSLVVNYPFDDDEQGLATYSKSPDDAVFQQIALSYSKENSQMFQGRPCKNMYPNEYFPHGITNGASWYNVPGGMQDWNYLQTNCFEVTIELGCVKYPLEKELPNFWEQNRRSLIQFMKQVHQGVRGFVLDATDGRGILNATISVAEINHPVTTYKTGDYWRLLVPGTYKITASARGYNPVTKNVTVKSEGAIQVNFTLVRSSTDSNNESKKGKGASSSTNDASDPTTKEFETLIKDLSAENGLESLMLRSSSNLALALYRYHSYKDLSEFLRGLVMNYPHITNLTNLGQSTEYRHIWSLEISNKPNVSEPEEPKIRFVAGIHGNAPVGTELLLALAEFLCLNYKKNPAVTQLVDRTRIVIVPSLNPDGRERAQEKDCTSKIGQTNARGKDLDTDFTNNASQPETKAIIENLIQKQDFSLSVALDGGSMLVTYPYDKPVQTVENKETLKHLASLYANNHPSMHMGQPSCPNKSDENIPGGVMRGAEWHSHLGSMKDYSVTYGHCPEITVYTSCCYFPSAARLPSLWADNKRSLLSMLVEVHKGVHGFVKDKTGKPISKAVIVLNEGIKVQTKEGGYFHVLLAPGVHNIIAIADGYQQQHSQVFVHHDAASSVVIVFDTDNRIFGLPRELVVTVSGATMSALILTACIIWCICSIKSNRHKDGFHRLRQHHDEYEDEIRMMSTGSKKSLLSHEFQDETDTEEETLYSSKH
B6: discoidin, CUB and LCCL domain containing protein 1 (protein, UniProt Q8N8Z6 35-715)
chain: EELGDGCGHLVTYQDSGTMTSKNYPGTYPNHTVCEKTITVPKGKRLILRLGDLDIESQTCASDYLLFTSSSDQYGPYCGSMTVPKELLLNTSEVTVRFESGSHISGRGFLLTYASSDHPDLITCLERASHYLKTEYSKFCPAGCRDVAGDISGNMVDGYRDTSLLCKAAIHAGIIADELGGQISVLQRKGISRYEGILANGVLSRDGSLSDKRFLFTSNGCSRSLSFEPDGQIRASSSWQSVNESGDQVHWSPGQARLQDQGPSWASGDSSNNHKPREWLEIDLGEKKKITGIRTTGSTQSNFNFYVKSFVMNFKNNNSKWKTYKGIVNNEEKVFQGNSNFRDPVQNNFIPPIVARYVRVVPQTWHQRIALKVELIGCQITQGNDSLVWRKTSQSTSVSTKKEDETITRPIPSEETSTGINITTVAIPLVLLVVLVFAGMGIFAAFRKKKKKGSPYGSAEAQKTDCWKQIKYPFARHQSAEFTISYDNEKEMTQKLDLITSDMADYQQPLMIGTGTVTRKGSTFRPMDTDAEEAGVSTDAGGHYDCPQRAGRHEYALPLAPPEPEYATPIVERHVLRAHTFSAQSGYRVPGPQPGHKHSLSSGGFSPVAGVGAQDGDYQRPHSAQPADRGYDRPKAVSALATESGHPDSQKPPTHPGTSDSYSAPRDCLTPLNQTAMTALL
B7: Diacylglycerol kinase delta (protein, UniProt Q16760 1-1214)
chain: MAAAAGAPPPGPPQPPPPPPPEESSDSEPEAEPGSPQKLIRKVSTSGQIRQKTIIKEGMLTKQNNSFQRSKRRYFKLRGRTLYYAKTAKSIIFDEVDLTDASVAESSTKNVNNSFTVITPCRKLILCADNRKEMEDWIAALKTVQNREHFEPTQYSMDHFSGMHNWYACSHARPTYCNVCREALSGVTSHGLSCEVCKFKAHKRCAVRATNNCKWTTLASIGKDIIEDADGIAMPHQWLEGNLPVSAKCTVCDKTCGSVLRLQDWRCLWCKAMVHTSCKESLLTKCPLGLCKVSVIPPTALNSIDSDGFWKASCPPSCTSPLLVFVNSKSGDNQGVKFLRRFKQLLNPAQVFDLMNGGPHLGLRLFQKFDTFRILVCGGDGSVGWVLSEIDSLNLHKQCQLGVLPLGTGNDLARVLGWGSACDDDTQLPQILEKLERASTKMLDRWSVMAYEAKLPRQASSSTVTEDFSEDSEVQQILFYEDSVAAHLSKILTSDQHSVVISSAKVLCETVKDFVARVGKAYEKTTESSEESEVMAKKCSVLKEKLDSLLKTLDDESQASSSLPNPPPTIAEEAEDGDGSGSICGSTGDRLVASACPARPQIFRPREQLMLRANSLKKAIRQIIEHTEKAVDEQNAQTQEQEGFVLGLSESEEKMDHRVCPPLSHSESFGVPKGRSQRKVSKSPCEKLISKGSLSLGSSASLPPQPGSRDGLPALNTKILYPNVRAGMSGSLPGGSVISRLLINADPFNSEPETLEYYTEKCVMNNYFGIGLDAKISLDFNNKRDEHPEKCRSRTKNMMWYGVLGTKELLHRTYKNLEQKVLLECDGRPIPLPSLQGIAVLNIPSYAGGTNFWGGTKEDDTFAAPSFDDKILEVVAVFGSMQMAVSRVIRLQHHRIAQCRTVKISILGDEGVPVQVDGEAWVQPPGYIRIVHKNRAQTLTRDRAFESTLKSWEDKQKCELPRPPSCSLHPEMLSEEEATQMDQFGQAAGVLIHSIREIAQSHRDMEQELAHAVNASSKSMDRVYGKPRTTEGLNCSFVLEMVNNFRALRSETELLLSGKMALQLDPPQKEQLGSALAEMDRQLRRLADTPWLCQSAEPGDEESVMLDLAKRSRSGKFRLVTKFKKEKNNKNKEAHSSLGAPVHLWGTEEVAAWLEHLSLCEYKDIFTRHDIRGSELLHLERRDLKDLGVTKVGHMKRILCGIKELSRSAPAVEA
B8: Protein kinase C iota type (protein, UniProt P41743 1-596)
chain: MPTQRDSSTMSHTVAGGGSGDHSHQVRVKAYYRGDIMITHFEPSISFEGLCNEVRDMCSFDNEQLFTMKWIDEEGDPCTVSSQLELEEAFRLYELNKDSELLIHVFPCVPERPGMPCPGEDKSIYRRGARRWRKLYCANGHTFQAKRFNRRAHCAICTDRIWGLGRQGYKCINCKLLVHKKCHKLVTIECGRHSLPQEPVMPMDQSSMHSDHAQTVIPYNPSSHESLDQVGEEKEAMNTRESGKASSSLGLQDFDLLRVIGRGSYAKVLLVRLKKTDRIYAMKVVKKELVNDDEDIDWVQTEKHVFEQASNHPFLVGLHSCFQTESRLFFVIEYVNGGDLMFHMQRQRKLPEEHARFYSAEISLALNYLHERGIIYRDLKLDNVLLDSEGHIKLTDYGMCKEGLRPGDTTSTFCGTPNYIAPEILRGEDYGFSVDWWALGVLMFEMMAGRSPFDIVGSSDNPDQNTEDYLFQVILEKQIRIPRSLSVKAASVLKSFLNKDPKERLGCHPQTGFADIQGHPFFRNVDWDMMEQKQVVPPFKPNISGEFGLDNFDSQFTNEPVQLTPDDDDIVRKIDQSEFEGFEYINPLLMSAEECV

Molecular target: CD9:TurboID fusion protein (human) (UniProt P21926)
Experiment: proximity labelling; CD9:TurboID-V5 stably expressed in CD9-/- A549 cells; 50 μM biotin for 30, 60 or 240 min; cells uninfected or infected with N. meningitidis MC58 or S. aureus SH1000 (MOI = 50); RIPA lysis, streptavidin bead pull-down, on-bead digestion, LC-MS/MS with LFQ; enrichment against cytosolic TurboID (FDR 0.01, s0 = 2), infected against uninfected (FDR 0.05, s0 = 0.1)

Row | binding | Binder
1 | binds | B1
2 | binds | B2
3 | binds | B3
4 | binds | B4
5 | binds | B5
6 | binds | B6
7 | binds | B7
8 | binds | B8
